For the data set, the system named is A549 cells. The data set can be described thus: subcellular localization of GFP-fused SH2 domains in live cells. As to conditions: 16 to 20 hours after transfection. Format: cell-based.

The source of these data is patent US10274499B2, “SH2 domain variants” (THE UNIVERSITY OF WESTERN ONTARIO, priority 2012, dated 2019).

For “wild-type Src SH2 domain: human Src SH2 domain between Asp144 and Lys252; SEQ ID NO:18 [reference compound]”, the “subcellular localization of GFP fusion” value is “distributed more or less evenly in the cell with a slight enrichment in the nuclear region”.
